{
  "sequences": {"note": "Chains of the proteins cited; added tags and fusions are not shown. Lines headed by an entry give the natural chain unless they say otherwise; changes in a name come on top.", "UniProt Q9NB71": "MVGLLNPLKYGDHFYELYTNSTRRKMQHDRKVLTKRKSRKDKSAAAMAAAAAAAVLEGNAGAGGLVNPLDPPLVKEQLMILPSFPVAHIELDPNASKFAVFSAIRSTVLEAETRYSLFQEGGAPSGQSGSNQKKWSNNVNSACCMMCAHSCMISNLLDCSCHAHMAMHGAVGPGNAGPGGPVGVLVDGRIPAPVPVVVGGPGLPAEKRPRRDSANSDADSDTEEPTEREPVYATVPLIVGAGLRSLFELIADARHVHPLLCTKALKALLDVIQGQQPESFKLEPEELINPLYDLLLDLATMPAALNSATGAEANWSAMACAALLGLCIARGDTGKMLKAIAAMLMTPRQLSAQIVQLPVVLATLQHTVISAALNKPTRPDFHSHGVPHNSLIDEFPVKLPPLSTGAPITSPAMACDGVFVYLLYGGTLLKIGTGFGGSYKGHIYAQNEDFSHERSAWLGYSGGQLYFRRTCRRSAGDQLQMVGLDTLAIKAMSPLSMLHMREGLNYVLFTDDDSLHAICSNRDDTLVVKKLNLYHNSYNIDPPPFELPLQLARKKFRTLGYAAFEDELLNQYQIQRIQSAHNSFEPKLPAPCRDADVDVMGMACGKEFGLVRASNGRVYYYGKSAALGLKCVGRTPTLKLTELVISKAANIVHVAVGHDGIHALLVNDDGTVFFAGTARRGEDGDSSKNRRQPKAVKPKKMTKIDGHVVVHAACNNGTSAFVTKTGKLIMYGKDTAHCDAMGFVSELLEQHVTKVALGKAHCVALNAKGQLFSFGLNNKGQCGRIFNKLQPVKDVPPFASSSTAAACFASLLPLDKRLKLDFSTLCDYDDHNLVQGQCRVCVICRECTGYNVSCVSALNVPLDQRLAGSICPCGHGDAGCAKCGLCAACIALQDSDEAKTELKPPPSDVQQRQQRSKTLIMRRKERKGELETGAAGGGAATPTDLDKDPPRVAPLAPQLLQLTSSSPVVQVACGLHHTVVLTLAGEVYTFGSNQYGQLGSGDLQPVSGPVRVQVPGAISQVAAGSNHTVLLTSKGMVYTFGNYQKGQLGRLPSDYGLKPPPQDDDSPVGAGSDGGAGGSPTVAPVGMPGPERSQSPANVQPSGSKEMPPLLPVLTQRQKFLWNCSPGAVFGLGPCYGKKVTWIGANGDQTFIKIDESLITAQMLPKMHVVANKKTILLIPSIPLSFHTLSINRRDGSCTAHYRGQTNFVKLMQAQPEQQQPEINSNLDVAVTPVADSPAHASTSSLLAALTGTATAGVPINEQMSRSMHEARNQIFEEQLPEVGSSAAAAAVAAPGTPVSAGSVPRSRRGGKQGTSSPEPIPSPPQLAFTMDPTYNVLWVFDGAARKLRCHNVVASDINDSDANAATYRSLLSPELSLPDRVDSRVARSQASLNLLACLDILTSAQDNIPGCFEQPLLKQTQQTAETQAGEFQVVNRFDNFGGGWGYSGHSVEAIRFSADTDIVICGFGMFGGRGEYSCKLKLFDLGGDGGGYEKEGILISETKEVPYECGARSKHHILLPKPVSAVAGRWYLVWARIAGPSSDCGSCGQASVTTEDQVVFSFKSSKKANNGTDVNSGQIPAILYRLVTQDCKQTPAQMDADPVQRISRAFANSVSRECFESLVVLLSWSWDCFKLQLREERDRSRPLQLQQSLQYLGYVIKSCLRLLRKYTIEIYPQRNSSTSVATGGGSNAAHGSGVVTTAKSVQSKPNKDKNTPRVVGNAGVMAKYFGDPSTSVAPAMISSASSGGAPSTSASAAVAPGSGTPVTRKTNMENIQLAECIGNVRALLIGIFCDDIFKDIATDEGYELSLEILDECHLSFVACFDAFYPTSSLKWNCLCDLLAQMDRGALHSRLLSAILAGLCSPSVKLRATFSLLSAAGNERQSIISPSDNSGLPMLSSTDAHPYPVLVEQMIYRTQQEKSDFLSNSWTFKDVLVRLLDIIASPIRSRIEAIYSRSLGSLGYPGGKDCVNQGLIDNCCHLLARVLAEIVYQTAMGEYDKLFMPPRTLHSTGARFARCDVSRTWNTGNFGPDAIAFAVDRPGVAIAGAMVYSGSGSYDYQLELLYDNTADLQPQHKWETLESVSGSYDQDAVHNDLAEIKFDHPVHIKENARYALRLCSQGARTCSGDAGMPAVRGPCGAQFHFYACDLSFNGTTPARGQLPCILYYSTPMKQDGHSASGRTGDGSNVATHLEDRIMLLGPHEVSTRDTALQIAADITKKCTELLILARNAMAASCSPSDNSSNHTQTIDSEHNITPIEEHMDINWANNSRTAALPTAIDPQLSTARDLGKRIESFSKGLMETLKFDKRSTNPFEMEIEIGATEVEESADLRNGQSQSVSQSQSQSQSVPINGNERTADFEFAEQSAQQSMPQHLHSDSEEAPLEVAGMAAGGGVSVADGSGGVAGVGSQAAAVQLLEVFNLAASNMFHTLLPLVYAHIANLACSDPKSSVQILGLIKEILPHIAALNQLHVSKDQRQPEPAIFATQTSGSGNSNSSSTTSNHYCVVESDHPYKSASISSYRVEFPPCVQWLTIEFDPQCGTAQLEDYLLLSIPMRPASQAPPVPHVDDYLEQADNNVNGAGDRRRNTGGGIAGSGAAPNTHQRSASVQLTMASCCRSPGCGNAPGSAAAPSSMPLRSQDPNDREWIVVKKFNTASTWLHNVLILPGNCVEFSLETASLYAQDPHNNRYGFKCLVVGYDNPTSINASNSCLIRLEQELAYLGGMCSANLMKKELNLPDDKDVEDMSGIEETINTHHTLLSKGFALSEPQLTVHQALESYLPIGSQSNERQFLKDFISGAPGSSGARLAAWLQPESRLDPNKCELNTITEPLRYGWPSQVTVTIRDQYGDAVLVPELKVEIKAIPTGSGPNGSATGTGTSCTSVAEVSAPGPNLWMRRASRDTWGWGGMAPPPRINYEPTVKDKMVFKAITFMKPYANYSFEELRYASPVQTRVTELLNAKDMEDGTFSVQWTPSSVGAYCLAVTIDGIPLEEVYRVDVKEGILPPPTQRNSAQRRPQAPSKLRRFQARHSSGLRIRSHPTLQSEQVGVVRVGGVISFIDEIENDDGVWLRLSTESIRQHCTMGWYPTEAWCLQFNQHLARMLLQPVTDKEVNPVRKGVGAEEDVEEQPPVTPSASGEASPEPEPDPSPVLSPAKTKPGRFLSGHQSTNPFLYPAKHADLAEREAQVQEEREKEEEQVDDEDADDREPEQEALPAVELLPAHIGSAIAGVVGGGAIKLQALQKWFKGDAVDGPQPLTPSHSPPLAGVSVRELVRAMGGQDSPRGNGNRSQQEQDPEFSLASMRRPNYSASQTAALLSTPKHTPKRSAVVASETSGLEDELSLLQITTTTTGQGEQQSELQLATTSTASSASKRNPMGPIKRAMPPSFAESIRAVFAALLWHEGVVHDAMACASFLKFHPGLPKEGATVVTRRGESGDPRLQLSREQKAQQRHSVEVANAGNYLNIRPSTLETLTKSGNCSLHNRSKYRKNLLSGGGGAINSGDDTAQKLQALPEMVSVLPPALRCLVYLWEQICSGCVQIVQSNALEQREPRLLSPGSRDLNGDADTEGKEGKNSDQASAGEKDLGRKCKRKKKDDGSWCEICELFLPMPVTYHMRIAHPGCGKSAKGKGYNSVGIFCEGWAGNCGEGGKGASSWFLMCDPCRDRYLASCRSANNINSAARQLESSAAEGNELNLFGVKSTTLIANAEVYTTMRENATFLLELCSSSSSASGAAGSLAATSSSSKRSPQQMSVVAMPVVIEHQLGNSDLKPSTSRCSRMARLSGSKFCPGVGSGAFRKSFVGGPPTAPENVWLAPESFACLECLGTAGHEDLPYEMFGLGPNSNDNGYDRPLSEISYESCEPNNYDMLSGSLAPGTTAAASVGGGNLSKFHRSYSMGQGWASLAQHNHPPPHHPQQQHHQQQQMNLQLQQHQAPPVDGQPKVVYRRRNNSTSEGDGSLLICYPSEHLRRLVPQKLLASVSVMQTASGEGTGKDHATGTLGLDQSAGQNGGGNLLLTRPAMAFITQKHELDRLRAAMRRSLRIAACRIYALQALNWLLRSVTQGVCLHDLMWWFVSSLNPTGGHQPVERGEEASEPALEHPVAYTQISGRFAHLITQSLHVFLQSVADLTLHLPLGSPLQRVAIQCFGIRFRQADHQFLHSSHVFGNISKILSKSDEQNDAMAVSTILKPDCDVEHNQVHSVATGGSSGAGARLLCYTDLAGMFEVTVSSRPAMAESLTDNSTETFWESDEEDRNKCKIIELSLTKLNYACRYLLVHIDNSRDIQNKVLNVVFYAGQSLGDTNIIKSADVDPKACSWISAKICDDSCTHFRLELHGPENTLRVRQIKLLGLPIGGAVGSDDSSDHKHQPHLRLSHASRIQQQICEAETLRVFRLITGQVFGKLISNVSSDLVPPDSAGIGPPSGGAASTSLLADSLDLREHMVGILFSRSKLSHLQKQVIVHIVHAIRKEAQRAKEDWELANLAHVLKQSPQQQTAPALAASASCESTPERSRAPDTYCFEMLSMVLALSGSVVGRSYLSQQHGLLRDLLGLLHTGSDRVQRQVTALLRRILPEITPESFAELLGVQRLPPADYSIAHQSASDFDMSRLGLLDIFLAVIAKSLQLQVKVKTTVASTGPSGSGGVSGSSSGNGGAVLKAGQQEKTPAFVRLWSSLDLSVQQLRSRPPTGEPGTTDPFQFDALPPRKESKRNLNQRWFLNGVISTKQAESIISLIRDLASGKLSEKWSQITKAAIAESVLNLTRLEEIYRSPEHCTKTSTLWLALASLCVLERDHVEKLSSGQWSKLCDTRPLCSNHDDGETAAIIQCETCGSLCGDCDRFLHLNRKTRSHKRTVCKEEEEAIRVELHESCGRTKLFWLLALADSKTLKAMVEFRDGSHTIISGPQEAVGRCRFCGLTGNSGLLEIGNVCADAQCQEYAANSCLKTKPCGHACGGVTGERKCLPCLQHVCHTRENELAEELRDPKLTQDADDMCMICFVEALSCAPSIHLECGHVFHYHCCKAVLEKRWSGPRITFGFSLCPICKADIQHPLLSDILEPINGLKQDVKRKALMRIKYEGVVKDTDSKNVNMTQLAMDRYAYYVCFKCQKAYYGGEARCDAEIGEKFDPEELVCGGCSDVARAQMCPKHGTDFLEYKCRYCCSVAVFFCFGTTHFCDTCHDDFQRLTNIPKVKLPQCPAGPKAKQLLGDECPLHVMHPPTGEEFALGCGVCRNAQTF"},
  "source": "paper PMC3514318",
  "target": "T1, HA-Nmnat (Drosophila nicotinamide mononucleotide adenyltransferase, HA-tagged) (Drosophila) (UniProt Q9VC03)",
  "T1 sequence": "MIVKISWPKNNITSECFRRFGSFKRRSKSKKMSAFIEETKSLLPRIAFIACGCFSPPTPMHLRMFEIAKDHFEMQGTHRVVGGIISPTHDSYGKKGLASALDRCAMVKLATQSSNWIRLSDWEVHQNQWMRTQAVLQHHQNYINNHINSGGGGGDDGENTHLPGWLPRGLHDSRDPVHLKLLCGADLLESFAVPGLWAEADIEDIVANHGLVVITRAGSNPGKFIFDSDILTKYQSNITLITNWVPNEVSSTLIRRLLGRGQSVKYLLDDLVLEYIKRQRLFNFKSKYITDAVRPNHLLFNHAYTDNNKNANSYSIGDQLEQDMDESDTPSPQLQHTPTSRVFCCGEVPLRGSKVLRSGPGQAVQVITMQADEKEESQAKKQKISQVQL",
  "test": "co-IP; S2R+ cell lysates, either co-transfected with pUAST-HA::Nmnat and pUAST-Hiw-ΔRING or mixed lysates from individual transfections; HA-Nmnat immunoprecipitated with mouse anti-HA (HA-7) on Protein G Dynabeads, 30 min at room temperature; lysis buffer 20 mM HEPES pH 7.5, 200 mM KCl, 0.05% Triton X-100, 2.5 mM EDTA, 5 mM DTT, 5% glycerol; Western blot with anti-Hiw",
  "note": "These are yes or no findings as the source states them, for the method shown. In cells and extracts the contact can be indirect. A result given as binding can be weak or reduced; the word gives no strength. Tags and fused reporters may be left off the sequences shown.",
  "data": [
    {"substance": "Hiw-ΔRING (Highwire mutated for conserved cysteines in the RING domain) (from UniProt Q9NB71) (enzyme)", "values": [
      {"measurement": "binding", "value": "binds"}
    ]}
  ]
}
